Measurements published in patent publication US6924288B2, “Enantiomerically pure opioid diarylmethylpiperzine and methods of using same” (priority 2001, dated 2005).
Some results were stated once for a whole list of compounds, not compound by compound.

System: rats
Experiment: Tail pinch test for analgesia in rats
Type: in vivo
Settings: rat, i.v.
Protocol: Analgesia was assayed in rats using the tail pinch test with simultaneous monitoring of capillary blood gases (pCO2). During this testing period respiratory depression values were also obtained. Male rats (Wistar Hannover 200-300 g) were anesthetized with 2% isoflurane (J. A. Webster, Inc., Sterling, Mass. The femoral artery was cannulated with PE50 tubing for blood sampling. The external jugular vein was also cannulated with Silastic tubing for drug injection. After surgery, anesthetic gases were removed and the rat was allowed to rest in a plastic restrainer for 60 minutes to establish baseline values of blood gases.
The compounds 1-6 were administered intravenous. […] Samples were then analyzed with a blood gas analyzer (Ph/Gas Analyzer Synthesis 25 Model, Instrumentation Laboratory) to assess respiratory depression effects. […] The syringes were capped immediately and the blood gases analyzed within 5 minutes. […]
An artery clamp was placed on the tail (one inch from the tip of the tail) for a short duration until an escape response occurred (i.e. tail-flick or vocalization). The escape response latency was recorded by means of a stopwatch. […] The elapsed time to elicit a pain response was recorded as the tail pinch latency in seconds. Blood gases were monitored at approximately the same time points as the tail pinch test. […]

Compound | Time analgesia was maintained
C=CCN1C[C@H](C)N([C@@H](c2ccsc2)c2cccc(O)c2)C[C@H]1C (racemic) [Compound 4, (±)3-((R*)-((2S*,5R*)-4-allyl-2,5-dimethyl-1-piperazinyl)(3-thienyl)methyl)phenol] | greater than 32 minutes
C=CCN1C[C@H](C)N([C@@H](c2ccsc2)c2cccc(O)c2)C[C@H]1C [Compound 5, (+)-3-((R)-((2S,5R)-4-allyl-2,5-dimethyl-1-piperazinyl)(3-thienyl)methyl)phenol] | greater than 32 minutes
